The source of these data is US20210395311A1 (New York University, priority 2019, published 2021).

This data set is described as follows: general procedure: Fmoc solid-phase peptide synthesis; Fmoc-Val-PEG Resin; HBTU, HOBt and NMM. As to conditions: whole synthesis, RP-HPLC profile, scale of the general procedure 2.4 g resin.

Ends that are not written are not given here.

In the case of “GMMCVTHCNG (cysteine pairing not given here)”, the “final HPLC purity” value is given as 99%.
